Taken from: PubChem BioAssay AID1224830 (NIAID, 2016)

- Test: 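Genes whose knock-down alters the TNF-alpha reporter response to LPS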 (primary screen)
- Cells: human THP-1 monocytic leukaemia cells, TNF dual-luciferase reporter clone, PMA-differentiated to macrophage-like cells
- Reagent: siRNA pool against human genes, 50 nM
- Time to read-out: LPS for 4 h, given about 3 days after siRNA transfection
- Treatment: bacterial LPS (TLR4 ligand), 10 ng/ml
- Measured: 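TNF firefly reporter luminescence divided by renilla, normalised to the plate median, then turned into a robust z-score for each replicate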
- Direction: TNF reporter robust z-score: higher = stronger TNF reporter response to LPS
- Rule for the call: 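a well is active when its z-score exceeds 2.8 or falls below -1.5; control wells carry no call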
Here is one part, drawn at random, of about 18,000 deposited reagents. Over the whole deposit, about 2,900 (16%) got an active call. 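Calls are made per well; low scores hint the gene aids the LPS response, high scores that it dampens it.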 Repeated entries: four replicate wells of each siRNA pool. No sequences are given here.

| Target gene | TNF reporter robust z-score | outcome |
| --- | --- | --- |
| RCBTB1 | – | inactive |
| RCBTB1 | -0.25 | inactive |
| RCBTB1 | -0.23 | inactive |
| RCBTB1 | -0.2 | inactive |
| RCBTB1 | -0.07 | inactive |
| ORAI2 | 0.67 | inactive |
| ORAI2 | 0.65 | inactive |
| ORAI2 | 0.38 | inactive |
| ORAI2 | 0.98 | inactive |
| ZNF503 | -1.81 | active |
| ZNF503 | -0.28 | inactive |
| ZNF503 | -0.03 | inactive |
| ZNF503 | -0.4 | inactive |
| CWH43 | -0.81 | inactive |
| CWH43 | 0.55 | inactive |
| CWH43 | 0.74 | inactive |
| CWH43 | 0.72 | inactive |
| PSG2 | -1.37 | inactive |
| PSG2 | -0.9 | inactive |
| PSG2 | -0.28 | inactive |
| PSG2 | -1.05 | inactive |
| COL15A1 | -0.41 | inactive |
| COL15A1 | -0.65 | inactive |
| COL15A1 | 0.37 | inactive |
| COL15A1 | -0.27 | inactive |
| SLC35B3 | -0.93 | inactive |
| SLC35B3 | 1.44 | inactive |
| SLC35B3 | -0.18 | inactive |
| SLC35B3 | 1.38 | inactive |
| CLXN | 0.7 | inactive |
| CLXN | 1.76 | inactive |
| CLXN | 0.39 | inactive |
| CLXN | 1.85 | inactive |
| MAN2B1 | -0.8 | inactive |
| MAN2B1 | 2.6 | inactive |
| MAN2B1 | 0.25 | inactive |
| MAN2B1 | 1.1 | inactive |
| PDK3 | 0.29 | inactive |
| PDK3 | -0.12 | inactive |
| PDK3 | 1.14 | inactive |
| PDK3 | 0.11 | inactive |
| TAF9B | -0.05 | inactive |
| TAF9B | -0.24 | inactive |
| TAF9B | 0.19 | inactive |
| TAF9B | 0.38 | inactive |
| PCDHB4 | 0.09 | inactive |
| PCDHB4 | -1.28 | inactive |
| PCDHB4 | -0.65 | inactive |
| PCDHB4 | -0.07 | inactive |
| PBRM1 | 0.22 | inactive |
| PBRM1 | -0.47 | inactive |
| PBRM1 | -0.25 | inactive |
| PBRM1 | 0.21 | inactive |
| FOXN1 | -0.72 | inactive |
| FOXN1 | 0.85 | inactive |
| FOXN1 | 2.31 | inactive |
| FOXN1 | 0.54 | inactive |
| ARL11 | -0.74 | inactive |
| ARL11 | -0.97 | inactive |
| ARL11 | -0.84 | inactive |
| ARL11 | -0.82 | inactive |
| ZNF804A | -0.25 | inactive |
| ZNF804A | -0.44 | inactive |
| ZNF804A | -0.48 | inactive |
| ZNF804A | 0.31 | inactive |
| OR2T33 | 0.5 | inactive |
| OR2T33 | 3.87 | active |
| OR2T33 | 0.34 | inactive |
| OR2T33 | -0.12 | inactive |
| GPR179 | 1.49 | inactive |
| GPR179 | 5.22 | active |
| GPR179 | -0.38 | inactive |
| GPR179 | 0.16 | inactive |
| TMEM213 | 0.02 | inactive |
| TMEM213 | -0.8 | inactive |
| TMEM213 | -0.63 | inactive |
| TMEM213 | -0.97 | inactive |
| ZNF132 | -0.69 | inactive |
| ZNF132 | -0.77 | inactive |
| ZNF132 | -1.36 | inactive |
| ZNF132 | -1.03 | inactive |
| SCLY | -1.12 | inactive |
| SCLY | -0.49 | inactive |
| SCLY | -0.41 | inactive |
| SCLY | -0.11 | inactive |
| MED23 | 1.76 | inactive |
| MED23 | 0.38 | inactive |
| MED23 | 1.98 | inactive |
| MED23 | 2.24 | inactive |
| C9orf78 | -1.4 | inactive |
| C9orf78 | -0.63 | inactive |
| C9orf78 | 0.47 | inactive |
| C9orf78 | 0.56 | inactive |
| ZNF280D | -1.06 | inactive |
| ZNF280D | 1.06 | inactive |
| ZNF280D | -0.38 | inactive |
| ZNF280D | -1.02 | inactive |
| GARNL3 | 2.34 | inactive |
| GARNL3 | 0.85 | inactive |
| GARNL3 | 1.14 | inactive |
| GARNL3 | 2.31 | inactive |
| HTR2A | 0.27 | inactive |
| HTR2A | 0.53 | inactive |
| HTR2A | 0.18 | inactive |
| HTR2A | 0.13 | inactive |
| CTRL | -1.23 | inactive |
| CTRL | -0.69 | inactive |
| CTRL | -1.52 | active |
| CTRL | 0.31 | inactive |
| SNX4 | 0.21 | inactive |
| SNX4 | -0.41 | inactive |
| SNX4 | 0.24 | inactive |
| SNX4 | -1.08 | inactive |
| CLCN1 | 1.2 | inactive |
| CLCN1 | 3.39 | active |
| CLCN1 | 3.02 | active |
| CLCN1 | 2.23 | inactive |
| SNHG32 | -0.02 | inactive |
| SNHG32 | 0.26 | inactive |
| SNHG32 | -0.14 | inactive |
| SNHG32 | 0.81 | inactive |
| INPPL1 | 1.92 | inactive |
| INPPL1 | 0.94 | inactive |
| INPPL1 | 1.15 | inactive |
| INPPL1 | 2.05 | inactive |
| CYP21A2 | -0.44 | inactive |
| CYP21A2 | -1.2 | inactive |
| CYP21A2 | -1.14 | inactive |
| CYP21A2 | -0.8 | inactive |
| RBBP4 | 0.87 | inactive |
| RBBP4 | 0.45 | inactive |
| RBBP4 | 2.01 | inactive |
| TM4SF4 | 0.55 | inactive |
| TM4SF4 | 1.71 | inactive |
| TM4SF4 | 0.37 | inactive |
| TM4SF4 | 0.59 | inactive |
| PGCKA1 | -0.62 | inactive |
| PGCKA1 | -0.7 | inactive |
| PGCKA1 | 0.15 | inactive |
| PGCKA1 | 0.64 | inactive |
